PubChem BioAssay AID1053208 | Peter MacCallum Cancer Centre, 2014
Purpose: 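Synthetic lethal interactions between gene loss and doxorubicin in osteosarcoma cells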 (primary screen). Cell system: mouse osteosarcoma cells, early-passage culture from an engineered mouse model of fibroblastic bone tumour. Reagent: siRNA pool against mouse genes, 40 nM. Duration: about 120 h (48 h before drug, then 72 h with drug). Challenge: doxorubicin 100 nM for 72 h, roughly 30-40% inhibitory dose. Detection: 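Luminescent ATP signal taken as viability with or without 100 nM doxorubicin for 72 h; mean of two wells set against non-targeting siRNA and turned into robust z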. Reading the numbers: viability z-score with doxorubicin: higher = more viable cells under doxorubicin; viability z-score without drug: higher = more viable cells with knock-down alone; z-score of drug to no-drug ratio: higher = less drug sensitisation by knock-down. Call rule: 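a pool counts as active when its viability z-score with doxorubicin is -2 or below and its z-score without drug lies between -2 and 2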.
This is an unselected part of about 17,000 reagents. 788 of all reagents (4.7%) were called active. 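Calls rest on z-score classes alone; an extra cut-off of viability at most 70% of control was not applied to them.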 Unmarked entries are inactive. Not all columns of the deposit are shown.

gene symbol	combined z-score class	viability z-score with doxorubicin	viability z-score without drug	z-score of drug to no-drug ratio
Raet1a (GeneID 19368)	high cell count without drug only	0.45	2.02	-0.67
Tsg101 (GeneID 22088)	no change with or without drug	-1.12	1.52	-1.91
Ndufaf1 (GeneID 69702)	no change with or without drug	-1.35	-0.84	-0.79
Cntd1 (GeneID 68107)	no change with or without drug	1.46	0.51	1.24
Slc25a15 (GeneID 18408)	no change with or without drug	0.45	-0.51	1.01
C1qbp (GeneID 12261)	no change with or without drug	-0.67	-0.17	-0.45
Acot2 (GeneID 171210)	no change with or without drug	0	1.18	-0.67
Megf6 (GeneID 230971)	no change with or without drug	0.67	0.51	0.45
Spry1 (GeneID 24063)	no change with or without drug	0.67	0.67	0.34
Gm5111 (GeneID 330305)	no change with or without drug	-0.22	0.17	-0.22
Or6k4 (GeneID 258716)	no change with or without drug	0.34	0.67	0
Mrpl52 (GeneID 68836)	low cell count with and without drug	-2.25	-2.53	-0.67
Btf3l4 (GeneID 70533)	no change with or without drug	1.35	0.67	1.01
Emx1 (GeneID 13796)	no change with or without drug	0.22	0.84	-0.22
Ifna13 (GeneID 230396)	no change with or without drug	-0.22	-0.51	0.22
Tcstv1a (GeneID 54382)	no change with or without drug	-1.12	-1.01	-0.45
Vmn2r-ps54 (GeneID 75835)	low cell count without drug only	-1.01	-2.02	0.45
Rgs16 (GeneID 19734)	no change with or without drug	0	-1.18	1.01
Cftr (GeneID 12638)	no change with or without drug	0.22	0.17	0.22
Slc20a2 (GeneID 20516)	no change with or without drug	-1.8	0.17	-1.91
Cox8b (GeneID 12869)	no change with or without drug	-1.12	-0.34	-0.9
Impdh2 (GeneID 23918)	no change with or without drug	-0.45	-1.01	0.34
Mtpap (GeneID 67440)	no change with or without drug	-0.11	0.67	-0.45
Or8g37 (GeneID 258604)	no change with or without drug	-0.56	-0.51	-0.11
Tm6sf1 (GeneID 107769)	high cell count with doxorubicin only	2.02	1.18	1.35
Atf4 (GeneID 11911)	low cell count with doxorubicin only (active)	-2.47	-0.84	-2.02
Or8c10 (GeneID 404312)	no change with or without drug	0.67	1.85	-0.45
Uri1 (GeneID 19777)	high cell count without drug only	-0.67	2.19	-1.91
1810009J06Rik (GeneID 73626)	low cell count with doxorubicin only (active)	-2.7	-0.84	-2.25
Txndc16 (GeneID 70561)	no change with or without drug	-0.34	-0.84	0.34
C3ar1 (GeneID 12267)	no change with or without drug	0.45	1.85	-0.67
Insl6 (GeneID 27356)	high cell count with doxorubicin only	2.59	1.85	1.35
Eps8l2 (GeneID 98845)	no change with or without drug	-1.91	-0.17	-1.8
Bag3 (GeneID 29810)	no change with or without drug	0.11	0.84	-0.34
Pou2f2 (GeneID 18987)	no change with or without drug	1.46	0.67	1.12
Fdps (GeneID 110196)	no change with or without drug	0	0.34	-0.11
4930544M13Rik (GeneID 75161)	no change with or without drug	1.8	0.84	1.35
A430033K04Rik (GeneID 243308)	no change with or without drug	-0.45	0.84	-0.9
4930429B21Rik (GeneID 67576)	no change with or without drug	0.34	1.18	-0.34
Wdr59 (GeneID 319481)	no change with or without drug	-0.45	0.34	-0.56
Zfp40 (GeneID 22700)	low cell count with and without drug	-2.47	-2.53	-0.9
Casp1 (GeneID 12362)	no change with or without drug	-0.45	0.34	-0.56
Fam220a (GeneID 67238)	no change with or without drug	1.57	0.34	1.46
Sema4f (GeneID 20355)	no change with or without drug	-0.45	-1.01	0.34
Ppp1r17 (GeneID 19051)	high cell count without drug only	-0.22	2.36	-1.57
Rars1 (GeneID 104458)	high cell count with and without drug	2.25	2.53	0.67
Igfbp7 (GeneID 29817)	no change with or without drug	0.11	-0.17	0.34
Smarca1 (GeneID 93761)	no change with or without drug	0.67	0.17	0.67
Acot11 (GeneID 329910)	no change with or without drug	-0.67	-0.51	-0.22
Or5h22 (GeneID 258392)	no change with or without drug	0.22	-0.17	0.45
Rbbp8nl (GeneID 271887)	no change with or without drug	0.34	-0.17	0.56
Mrgprx2 (GeneID 243978)	high cell count with doxorubicin only	2.59	0	2.81
Arfgap2 (GeneID 77038)	low cell count with doxorubicin only (active)	-2.7	0.67	-3.04
Dpf3 (GeneID 70127)	high cell count with doxorubicin only	2.47	-0.17	2.81
Dtd1 (GeneID 66044)	no change with or without drug	-1.57	-0.51	-1.24
Slc15a1 (GeneID 56643)	no change with or without drug	-0.22	-1.18	0.79
Rnf186 (GeneID 66825)	no change with or without drug	-1.12	-0.84	-0.56
Nt5c (GeneID 50773)	no change with or without drug	0.67	-0.84	1.46
Foxi2 (GeneID 270004)	no change with or without drug	0.45	0.51	0.22
F5 (GeneID 14067)	no change with or without drug	0.79	0.67	0.45
Spaca1 (GeneID 67652)	no change with or without drug	-1.01	1.18	-1.69
Wnt1 (GeneID 22408)	no change with or without drug	-0.67	0.51	-0.9
Tdpoz1 (GeneID 207213)	no change with or without drug	-0.45	0.34	-0.56

As entered above:
Value of Rbbp8nl (GeneID 271887) under “viability z-score without drug”: -0.17
Slc25a15 (GeneID 18408), combined z-score class = no change with or without drug
Or8c10 (GeneID 404312), viability z-score with doxorubicin = 0.67
